The record followed here is article PMC9408947.

Sequences of proteins named here, by UniProt entry; tags and fusion partners are left off. Residues count along the entry.
UniProt Q49AH0, residues 25-187: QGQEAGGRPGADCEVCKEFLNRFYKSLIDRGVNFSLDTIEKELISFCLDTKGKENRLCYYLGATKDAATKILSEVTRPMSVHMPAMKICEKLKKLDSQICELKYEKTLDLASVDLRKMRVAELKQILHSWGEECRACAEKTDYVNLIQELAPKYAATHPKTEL
UniProt P11021, residues 19-654: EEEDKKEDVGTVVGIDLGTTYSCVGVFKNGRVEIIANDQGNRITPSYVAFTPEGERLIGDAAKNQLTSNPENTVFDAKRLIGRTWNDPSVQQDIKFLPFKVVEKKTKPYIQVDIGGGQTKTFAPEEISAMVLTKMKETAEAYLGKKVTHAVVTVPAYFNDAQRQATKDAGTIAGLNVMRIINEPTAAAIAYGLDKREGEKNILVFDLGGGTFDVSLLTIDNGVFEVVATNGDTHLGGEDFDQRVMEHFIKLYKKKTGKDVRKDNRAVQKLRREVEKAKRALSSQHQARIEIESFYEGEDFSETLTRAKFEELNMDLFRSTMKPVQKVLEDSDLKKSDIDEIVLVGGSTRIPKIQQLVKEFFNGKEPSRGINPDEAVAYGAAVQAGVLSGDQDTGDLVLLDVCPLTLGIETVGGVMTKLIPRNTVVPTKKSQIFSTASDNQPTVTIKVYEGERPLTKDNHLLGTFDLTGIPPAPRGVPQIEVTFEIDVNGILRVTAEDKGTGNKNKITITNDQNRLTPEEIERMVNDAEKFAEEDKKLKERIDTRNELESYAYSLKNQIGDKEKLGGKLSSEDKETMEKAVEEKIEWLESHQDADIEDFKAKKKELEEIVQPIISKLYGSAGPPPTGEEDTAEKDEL

For assay [1], the target named is SH-tagged CDNF (cerebral dopamine neurotrophic factor with Twin-StrepII and HA tags) (human) (UniProt Q49AH0). The experiment in a line: affinity purification with mass spectrometry; SH-CDNF as bait from lysate of doxycycline-induced HEK293 SH-CDNF cells (HENN buffer, 0.5% NP40, 150 mM NaCl, pH 8.0), held on Strep-Tactin beads, eluted with 1 mM D-biotin; SH-GFP cell line as control; FDR <= 0.001, S0 = 2.

For assay [2] the target is unchanged. The experiment in a line: affinity purification with mass spectrometry; SH-CDNF as bait from lysate of doxycycline-induced INS1 SH-CDNF cells (HENN buffer, 0.5% NP40, 150 mM NaCl, pH 8.0), held on Strep-Tactin beads, eluted with 1 mM D-biotin; SH-GFP cell line as control; FDR <= 0.001, S0 = 2.

No constants are given. Whether binding was seen depends on the method and setting. Binding seen in cells or lysates may run through a third protein. These calls come from enrichment with a bait or labelling near it, and not all partners need be listed. Where a sequence is shown, tags or fusion partners need not be part of it.

As for “GRP78 (endogenous, HEK293) (from UniProt P11021 19-654)”, the binding entry in assay [1] is “binds”.

B1: glucose-regulated protein 170 kDa (endogenous, INS1) (protein, UniProt Q63617 33-999)
chain: LAVMSVDLGSESMKVAIVKPGVPMEIVLNKESRRKTPVTVTLKENERFLGDSAAGMAIKNPKATLRYFQHLLGKQADNPHVALYRSRFPEHELNVDPQRQTVRFQISPQLQFSPEEVLGMVLNYSRSLAEDFAEQPIKDAVITVPAFFNQAERRAVLQAARMAGLKVLQLINDNTATALSYGVFRRKDINSTAQNIMFYDMGSGSTVCTIVTYQTVKTKEAGTQPQLQIRGVGFDRTLGGLEMELRLREHLAKLFNEQRKGQKAKDVRENPRAMAKLLREANRLKTVLSANADHMAQIEGLMDDVDFKAKVTRVEFEELCADLFDRVPGPVQQALQSAEMSLDQIEQVILVGGPTRVPKVQEVLLKPVGKEELGKNINADEAAAMGAVYQAAALSKAFKVKPFVVRDAVIYPILVEFTREVEEEPGLRSLKHNKRVLFSRMGPYPQRKVITFNRYSHDFNFHINYGDLGFLGPEDLRVFGSQNLTTVKLKGVGESFKKYPDYESKGIKAHFNLDESGVLSLDRVESVFETLVEDSPEEESTLTKLGNTISSLFGGGTSSDAKENGTDAVQEEEESPAEGSKDEPAEQGELKEEAEAPMEDTSQPPPSEPKGDAAREGETPDEKESGDKSEAQKPNEKGQAGPEGVPPAPEEEKKQKPARKQKMVEEIGVELAVLDLPDLPEDELAHSVQKLEDLTLRDLEKQEREKAANSLEAFIFETQDKLYQPEYQEVSTEEQREEISGKLSATSTWLEDEGFGATTVMLKDKLAELRKLCQGLFFRVEERRKWPERLSALDNLLNHSSIFLKGARLIPEMDQIFTDVEMTTLEKVINDTWTWKNATLAEQAKLPATEKPVLLSKDIEAKMMALDREVQYLLNKAKFTKPRPRPKDKNGTRTEPPLNASAGDQEEKVIPPTGQTEEAKAILEPDKEGLGTEAADSEPLELGGPGAESEQAEQTAGQKRPLKNDEL
For B1, the binding result in assay [2] is recorded as “binds”.

B2: glucose-regulated protein 170 kDa (endogenous, HEK293) (protein, UniProt Q9Y4L1 33-999)
chain: LAVMSVDLGSESMKVAIVKPGVPMEIVLNKESRRKTPVIVTLKENERFFGDSAASMAIKNPKATLRYFQHLLGKQADNPHVALYQARFPEHELTFDPQRQTVHFQISSQLQFSPEEVLGMVLNYSRSLAEDFAEQPIKDAVITVPVFFNQAERRAVLQAARMAGLKVLQLINDNTATALSYGVFRRKDINTTAQNIMFYDMGSGSTVCTIVTYQMVKTKEAGMQPQLQIRGVGFDRTLGGLEMELRLRERLAGLFNEQRKGQRAKDVRENPRAMAKLLREANRLKTVLSANADHMAQIEGLMDDVDFKAKVTRVEFEELCADLFERVPGPVQQALQSAEMSLDEIEQVILVGGATRVPRVQEVLLKAVGKEELGKNINADEAAAMGAVYQAAALSKAFKVKPFVVRDAVVYPILVEFTREVEEEPGIHSLKHNKRVLFSRMGPYPQRKVITFNRYSHDFNFHINYGDLGFLGPEDLRVFGSQNLTTVKLKGVGDSFKKYPDYESKGIKAHFNLDESGVLSLDRVESVFETLVEDSAEEESTLTKLGNTISSLFGGGTTPDAKENGTDTVQEEEESPAEGSKDEPGEQVELKEEAEAPVEDGSQPPPPEPKGDATPEGEKATEKENGDKSEAQKPSEKAEAGPEGVAPAPEGEKKQKPARKRRMVEEIGVELVVLDLPDLPEDKLAQSVQKLQDLTLRDLEKQEREKAANSLEAFIFETQDKLYQPEYQEVSTEEQREEISGKLSAASTWLEDEGVGATTVMLKEKLAELRKLCQGLFFRVEERKKWPERLSALDNLLNHSSMFLKGARLIPEMDQIFTEVEMTTLEKVINETWAWKNATLAEQAKLPATEKPVLLSKDIEAKMMALDREVQYLLNKAKFTKPRPRPKDKNGTRAEPPLNASASDQGEKVIPPAGQTEDAEPISEPEKVETGSEPGDTEPLELGGPGAEPEQKEQSTGQKRPLKNDEL
On to B2, for which the binding entry in assay [1] is listed as “binds”.
